PubChem BioAssay AID1259254 – NCATS | 2017

Test: 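Gene knock-downs that lead to re-replication, shown by excess G2 DNA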 (primary screen)
Cell system: human HCT116 colorectal cancer cells
Reagents: single siRNA against human genes
Timing: 3 days
Measurement: 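Imaged Hoechst DNA stain sorts each cell into a cycle phase by DNA amount; per plate, G2 fraction set to 0% for non-targeting and 100% for GMNN siRNA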
Scale: G2 robust z-score and G2 cells, % of GMNN control: higher = more G2 cells, more excess DNA replication
Rule for the call: 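Active siRNAs have a G2 robust z of 5 or more median absolute deviations over the median, which in these data means about 38% or higher of GMNN control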
The deposit covers about 59,000 reagents; shown is an unselected part. About 1,550 of all reagents (2.6%) were called active. 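G2 share is only a proxy for re-replication; each gene was hit by three separate siRNAs, and active genes were retested.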 Unmarked entries are inactive. Reagents against one gene are numbered here. Not all columns of the deposit are shown. Reagent sequences are not shown. Not stated in the record: the amount of reagent.

The first 2 records as a preview:
SLC27A6 #1 | G2 robust z-score: 1.28; G2 cells, % of GMNN control: 12
SLC27A6 #2 | G2 robust z-score: -0.883; G2 cells, % of GMNN control: -3.24

The listing, from the start:
SLC27A6 #1 | G2 robust z-score: 1.28; G2 cells, % of GMNN control: 12
SLC27A6 #2 | G2 robust z-score: -0.883; G2 cells, % of GMNN control: -3.24
SLC27A6 #3 | G2 robust z-score: 1.57; G2 cells, % of GMNN control: 14
KEL #1 | G2 robust z-score: -1.32; G2 cells, % of GMNN control: -6.32
KEL #2 | G2 robust z-score: 1.05; G2 cells, % of GMNN control: 10.4
KEL #3 | G2 robust z-score: 0.403; G2 cells, % of GMNN control: 5.8
MRPS6 #1 | G2 robust z-score: 1.87; G2 cells, % of GMNN control: 16.1
MRPS6 #2 | G2 robust z-score: 0.226; G2 cells, % of GMNN control: 4.56
MRPS6 #3 | G2 robust z-score: 3.67; G2 cells, % of GMNN control: 28.8
HOMER2 #1 | G2 robust z-score: -0.757; G2 cells, % of GMNN control: -2.36
HOMER2 #2 | G2 robust z-score: -1.08; G2 cells, % of GMNN control: -4.61
HOMER2 #3 | G2 robust z-score: 0.387; G2 cells, % of GMNN control: 5.69
RIPPLY1 #1 | G2 robust z-score: 0.156; G2 cells, % of GMNN control: 4.07
RIPPLY1 #2 | G2 robust z-score: -0.421; G2 cells, % of GMNN control: 0.00438
RIPPLY1 #3 | G2 robust z-score: -0.171; G2 cells, % of GMNN control: 1.77
TPD52L3 #1 | G2 robust z-score: 0.413; G2 cells, % of GMNN control: 5.87
TPD52L3 #2 | G2 robust z-score: -0.521; G2 cells, % of GMNN control: -0.697
TPD52L3 #3 | G2 robust z-score: 0.897; G2 cells, % of GMNN control: 9.28
